The list does not hold the whole screen: its compounds were picked by chemical class. Other doses and runs of a compound may be missing. T/C: endpoint of the treated group in % of that of the vehicle group. Schedule codes are those of the source, read here as Q, the interval in days (D) or hours (H), X, the number of doses. Some entries were tested several times; the values are given in rising order. Some T/C values carry the count of animals alive at the toxicity check; where neither a count nor a note follows, no animal had died by that day. Some entries give survivors of the animals treated and no T/C: the source files T/C as zero there, which appears to mark a toxic dose or a test without result, not a measured value. Some doses without a T/C left all or most animals alive at the check, yet need not have been tolerated: the source hardly ever lists a survival T/C far under the control, and the zero likely stands for such cases as well. Counts of survivors are from the toxicity check (mostly the fifth day) where no day follows; animals may have died later. For survival time, this PubChem deposit counts one and a half times the control or more as active, and values a quarter to a half above the control carry no call in these data; other NCI protocols may use other cut-offs. Some T/C values are followed by the survivors on the day toxicity was checked, most often the fifth; without a count or a note in brackets, all were alive then. Signs of the kind (2×) give the number of equal values in this list.
System: BDF1 mice, B16 melanoma s.c., survival/tumor T/C
Test: NCI In Vivo Anticancer Drug Screen. Data for tumor model B16 Melanoma (subcutaneous) in B6D2F1 (BDF1) mice
Procedure: The antitumor activity of compounds was measured in mice bearing transplantable tumors. Survival or tumor size were measured and the results are expressed as the measurement made in the treated group (T) divided by the measurement made in the vehicle treated control group (C). The tumor model used in this assay is B16 Melanoma (subcutaneous) in B6D2F1 (BDF1) mice

[1] = T/C endpoint: median survival time, dose: 25.0 mg/kg/injection, schedule: Q01DX009 (ip), vehicle: Klucel (hydroxypropylcellulose) (HPC), higher T/C = longer survival
[2] = T/C endpoint: median survival time, dose: 100.0 mg/kg/injection, schedule: Q01DX009 (ip), vehicle: Klucel (hydroxypropylcellulose) (HPC), higher T/C = longer survival
[3] = T/C endpoint: median survival time, dose: 200.0 mg/kg/injection, schedule: Q01DX009 (ip), vehicle: Klucel (hydroxypropylcellulose) (HPC), higher T/C = longer survival
[4] = T/C endpoint: median survival time, dose: 200.0 mg/kg/injection, schedule: Q01DX009 (ip), vehicle: saline with Tween-80, higher T/C = longer survival
[5] = T/C endpoint: median survival time, dose: 200.0 mg/kg/injection, schedule: Q08DX002 (ip), vehicle: saline with Tween-80, higher T/C = longer survival
[6] = T/C endpoint: median survival time, dose: 400.0 mg/kg/injection, schedule: Q08DX002 (ip), vehicle: Klucel (hydroxypropylcellulose) (HPC), higher T/C = longer survival
[7] = T/C endpoint: median survival time, dose: 800.0 mg/kg/injection, schedule: Q08DX002 (ip), vehicle: Klucel (hydroxypropylcellulose) (HPC), higher T/C = longer survival
[8] = T/C endpoint: median survival time, dose: 800.0 mg/kg/injection, schedule: Q08DX002 (ip), vehicle: saline with Tween-80, higher T/C = longer survival

O=P(Nc1ncccn1)(N1CC1)N1CC1
T/C (T/C endpoint: median survival time, dose: 3.12 mg/kg/injection, schedule: Q01DX009 (ip), vehicle: saline, higher T/C = longer survival): 103 % of control | T/C (T/C endpoint: median survival time, dose: 6.25 mg/kg/injection, schedule: Q01DX009 (ip), vehicle: saline, higher T/C = longer survival): 118 % of control | T/C (T/C endpoint: median survival time, dose: 12.5 mg/kg/injection, schedule: Q01DX009 (ip), vehicle: saline, higher T/C = longer survival): 122 % of control | survivor count (T/C endpoint: median survival time, dose: 25.0 mg/kg/injection, schedule: Q01DX009 (ip), vehicle: saline, higher T/C = longer survival): 10 of 10 | survivor count (T/C endpoint: median survival time, dose: 50.0 mg/kg/injection, schedule: Q01DX009 (ip), vehicle: saline, higher T/C = longer survival): 8 of 10 | survivor count (T/C endpoint: median survival time, dose: 100.0 mg/kg/injection, schedule: Q01DX009 (ip), vehicle: saline, higher T/C = longer survival): 0 of 10

NC(=O)c1[nH]cnc1/N=N\N(CCCl)CCCl
T/C (T/C endpoint: median survival time, dose: 12.5 mg/kg/injection, schedule: Q01DX009 (ip), vehicle: Klucel (hydroxypropylcellulose) (HPC), higher T/C = longer survival): 98 % of control | T/C [1]: 111 [5 of 6 alive], 112, 114, 130, 148 % of control | survivor count [1]: 5 of 6 | T/C (T/C endpoint: median survival time, dose: 25.0 mg/kg/injection, schedule: Q01DX009 (ip), vehicle: saline with Tween-80, higher T/C = longer survival): 91 and 108 % of control | T/C (T/C endpoint: median survival time, dose: 50.0 mg/kg/injection, schedule: Q01DX009 (ip), vehicle: Klucel (hydroxypropylcellulose) (HPC), higher T/C = longer survival): 100, 112, 113, 114 [5 of 6 alive], 127, 128 % of control | T/C (T/C endpoint: median survival time, dose: 50.0 mg/kg/injection, schedule: Q01DX009 (ip), vehicle: saline with Tween-80, higher T/C = longer survival): 112 and 120 % of control | T/C [2]: 109, 118, 121, 150, 170 % of control | survivor count [2]: 6 of 6 | T/C (T/C endpoint: median survival time, dose: 100.0 mg/kg/injection, schedule: Q01DX009 (ip), vehicle: saline with Tween-80, higher T/C = longer survival): 93 [5 of 6 alive] and 147 % of control | T/C (T/C endpoint: median survival time, dose: 100.0 mg/kg/injection, schedule: Q08DX002 (ip), vehicle: Klucel (hydroxypropylcellulose) (HPC), higher T/C = longer survival): 88, 98, 108, 118, 121, 137 % of control | T/C (T/C endpoint: median survival time, dose: 100.0 mg/kg/injection, schedule: Q08DX002 (ip), vehicle: saline with Tween-80, higher T/C = longer survival): 102 and 125 % of control | T/C [3]: 100 (2×) and 125 % of control | survivor count [3]: 6 of 6 | T/C [4]: 104 % of control | survivor count [4]: 6 of 6 | T/C (T/C endpoint: median survival time, dose: 200.0 mg/kg/injection, schedule: Q08DX002 (ip), vehicle: Klucel (hydroxypropylcellulose) (HPC), higher T/C = longer survival): 94, 95, 104, 112, 115, 118 % of control | T/C [5]: 108 % of control | survivor count [5]: 5 of 6 | survivor count (T/C endpoint: median survival time, dose: 400.0 mg/kg/injection, schedule: Q01DX009 (ip), vehicle: Klucel (hydroxypropylcellulose) (HPC), higher T/C = longer survival): 5 of 6 and 6 of 6 | survivor count (T/C endpoint: median survival time, dose: 400.0 mg/kg/injection, schedule: Q01DX009 (ip), vehicle: saline with Tween-80, higher T/C = longer survival): 4 of 5 and 5 of 6 | T/C [6]: 100, 122, 125, 139, 150 % of control | survivor count [6]: 6 of 6 | T/C (T/C endpoint: median survival time, dose: 400.0 mg/kg/injection, schedule: Q08DX002 (ip), vehicle: saline with Tween-80, higher T/C = longer survival): 129 and 135 % of control | T/C [7]: 150 % of control | survivor count [7]: 6 of 6 | T/C [8]: 93 % of control | survivor count [8]: 6 of 6 | T/C (T/C endpoint: median tumor weight (est.), dose: 25.0 mg/kg/injection, schedule: Q01DX009 (ip), vehicle: Klucel (hydroxypropylcellulose) (HPC), evaluated on day 14, higher T/C = larger tumour): 25 % of control | T/C (T/C endpoint: median tumor weight (est.), dose: 25.0 mg/kg/injection, schedule: Q01DX009 (ip), vehicle: saline with Tween-80, evaluated on day 15, higher T/C = larger tumour): 45 and 65 % of control | T/C (T/C endpoint: median tumor weight (est.), dose: 50.0 mg/kg/injection, schedule: Q01DX009 (ip), vehicle: Klucel (hydroxypropylcellulose) (HPC), evaluated on day 14, higher T/C = larger tumour): 36 % of control [5 of 6 alive] | T/C (T/C endpoint: median tumor weight (est.), dose: 50.0 mg/kg/injection, schedule: Q01DX009 (ip), vehicle: saline with Tween-80, evaluated on day 15, higher T/C = larger tumour): 65 and 66 % of control | T/C (T/C endpoint: median tumor weight (est.), dose: 100.0 mg/kg/injection, schedule: Q01DX009 (ip), vehicle: Klucel (hydroxypropylcellulose) (HPC), evaluated on day 14, higher T/C = larger tumour): 5 % of control | T/C (T/C endpoint: median tumor weight (est.), dose: 100.0 mg/kg/injection, schedule: Q01DX009 (ip), vehicle: saline with Tween-80, evaluated on day 15, higher T/C = larger tumour): 46 and 71 % of control | T/C (T/C endpoint: median tumor weight (est.), dose: 100.0 mg/kg/injection, schedule: Q08DX002 (ip), vehicle: Klucel (hydroxypropylcellulose) (HPC), evaluated on day 14, higher T/C = larger tumour): 61 % of control | T/C (T/C endpoint: median tumor weight (est.), dose: 100.0 mg/kg/injection, schedule: Q08DX002 (ip), vehicle: saline with Tween-80, evaluated on day 15, higher T/C = larger tumour): 94 and 100 % of control | T/C (T/C endpoint: median tumor weight (est.), dose: 200.0 mg/kg/injection, schedule: Q08DX002 (ip), vehicle: Klucel (hydroxypropylcellulose) (HPC), evaluated on day 14, higher T/C = larger tumour): 55 % of control | T/C (T/C endpoint: median tumor weight (est.), dose: 200.0 mg/kg/injection, schedule: Q08DX002 (ip), vehicle: saline with Tween-80, evaluated on day 15, higher T/C = larger tumour): 60 and 65 % of control | T/C (T/C endpoint: median tumor weight (est.), dose: 400.0 mg/kg/injection, schedule: Q08DX002 (ip), vehicle: Klucel (hydroxypropylcellulose) (HPC), evaluated on day 14, higher T/C = larger tumour): 9 % of control [5 of 6 alive] | T/C (T/C endpoint: median tumor weight (est.), dose: 400.0 mg/kg/injection, schedule: Q08DX002 (ip), vehicle: saline with Tween-80, evaluated on day 15, higher T/C = larger tumour): 22 and 28 % of control | T/C (T/C endpoint: median tumor weight (est.), dose: 800.0 mg/kg/injection, schedule: Q08DX002 (ip), vehicle: saline with Tween-80, evaluated on day 15, higher T/C = larger tumour): 44 % of control

Source: PubChem BioAssay AID194 (DTP/NCI, 2004)
